Results on 9 molecules are retold here after PubChem BioAssay (NCATS).

By UniProt entry, the sequences of proteins in these tests, tags left out.
UniProt P24462, whole entry, looked up: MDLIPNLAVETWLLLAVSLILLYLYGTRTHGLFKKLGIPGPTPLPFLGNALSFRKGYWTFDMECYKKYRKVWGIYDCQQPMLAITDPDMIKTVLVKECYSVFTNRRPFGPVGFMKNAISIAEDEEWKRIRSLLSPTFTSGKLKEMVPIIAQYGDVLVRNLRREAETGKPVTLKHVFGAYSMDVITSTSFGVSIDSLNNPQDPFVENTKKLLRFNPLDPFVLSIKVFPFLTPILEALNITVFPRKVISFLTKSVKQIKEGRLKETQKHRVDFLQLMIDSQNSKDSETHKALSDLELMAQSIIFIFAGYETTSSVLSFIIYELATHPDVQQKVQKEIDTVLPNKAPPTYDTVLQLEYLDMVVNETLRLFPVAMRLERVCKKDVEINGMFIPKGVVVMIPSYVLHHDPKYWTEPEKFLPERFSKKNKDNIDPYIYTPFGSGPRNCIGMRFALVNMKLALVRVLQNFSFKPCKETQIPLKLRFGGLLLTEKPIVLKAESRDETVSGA

Structures are written as SMILES. For some of these results: This list holds what a sample rich in hits left over. Results filed as inconclusive are left out. The list shows a part of the results, in another mix than the full data. The source made the active and inactive calls. Calls follow the shape of the dose curve; as a rule, active = well fitted curve in the direction sought with a large enough effect; inconclusive = small, poorly fitted or top-dose-only effect, or another doubt; inactive = no such curve, though single readings can be large; an effect the other way counts as inactive or inconclusive.

The nature of assay [1]: Quantitative highthroughput screen to assess conditional lethalithy of P12 Ichikawa cells grown in Human Plasma-Like Medium with dialyzed fetal bovine serum (HPLM+ds) (AID 1963879). Also: nearly all actives have a fitted effect of over 35% in size. To be noted: ATP luminescence, 48 h; at 45.8 µM (top of the series). The procedure, abridged: (§1)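 Each medium arm—HPLM with 10% dialyzed FBS, or RPMI1640 with 5 mM glucose and 10% untreated or dialyzed FBS—was screened against an 11-point, 3-fold compound titration for 48 h at 37 °C, with CellTiter-Glo luminescence as endpoint.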

Assay [2] is described as follows: Quantitative highthroughput screen to assess conditional lethalithy of P12 Ichikawa cells grown in RPMI1640 with dialyzed fetal bovine serum (RPMI+ds) (AID 1963880).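 Also: 100% = DMSO wells and 0% = empty wells on each plate; nearly all actives have a fitted effect of over 35% in size.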 The following applies: ATP luminescence, 48 h; at 45.8 µM (top of the series). In outline: as §1
Assay [3] can be described thus: Quantitative highthroughput screen to assess conditional lethalithy of P12 Ichikawa cells grown in RPMI1640 with untreated serum (RPMI+s) (AID 1963881).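 Also: 100% = DMSO wells and 0% = empty wells without cells; nearly all actives have a fitted effect of over 35% in size.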 To be noted: ATP luminescence, 48 h; at 45.8 µM (top of the series). The procedure, abridged:
as §1

Assay [4] addresses Cytochrome P450 3A7 (Homo sapiens) (UniProt P24462). Nature of the assay: Cytochrome P450 family 3 subfamily A member 7 (CYP3A7) small molecule antagonists: luciferase biochemical qHTS assay (AID 1963596). Also: nearly all actives have a fitted effect of over 40% in size. Also: potency is read from the fitted curve at half-maximal effect. The procedure, abridged:
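Biochemical CYP3A7 activity measured with P450-Glo system: luciferin formed from proluciferin substrate in NADPH-driven reaction (1 h, room temperature) after 10 min compound preincubation. Signal in relative luminescence units.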
A general note: qHTS replaces the single test concentration by a dilution series.

As to `CCC[C@H]1C[C@H](C(=O)N[C@@H]([C@@H]2O[C@@H](SC)[C@@H](O)[C@@H](O)[C@@H]2O)[C@H](C)Cl)N(C)C1`, the viability in assay [1] is inactive: 104%; in assay [2], inactive: 99.5%; in assay [3], inactive: 108%.

Turning to `Cc1ccc(CCCO)c(NCc2ccc3nc(NCCCN4CCOCC4)n(Cc4nc(C)ccc4O)c3c2)c1`, the Potency in assay [4] was active: 10.7 µM. Same read-out and setting: the value for `NC(=O)NNc1ccccc1` was active: 13.8 µM; that for `COC(=O)C1=C(C)NC(C)=C(C(=O)OC)C1c1ccccc1[N+](=O)[O-]` was active: 2.75 µM. On to `Nc1ccc(C(=O)Nc2cccc(-c3nc(N4CCOCC4)c4oc5ncccc5c4n3)c2)cn1`, for which the Potency in assay [4] is active: 5.01 µM. The viability is inactive: 89.2% in assay [1], inactive: 96% in assay [2] and inactive: 75.6% in assay [3]. As for `NC(=O)c1cnc(-c2ccc(C3(N)CCC3)cc2)c(-c2ccccc2)c1`, the Potency in assay [4] is active: 0.282 µM. Same read-out and setting: with `N#Cc1ccc(-c2ccc(S(=O)(=O)Nc3cccc(N)n3)cc2)cc1` the figure was active: 10.7 µM; with `O=C(c1ccc(F)cc1)N1CCCC(c2nc(-c3ccc(F)cc3)no2)C1` (stereo unspecified), “inactive”.

As to `Nc1nc2ccc(OC(F)(F)F)cc2s1`, the viability is inactive: 89% in assay [1], inactive: 92.2% in assay [2] and inactive: 95% in assay [3].

As a reminder, the viability is a read-out of living cells in per cent, often relative to untreated cells.
